Measurements from article PMC10212096.
These are yes or no findings as the source states them, for the method shown. For some of these results: In cells and extracts the contact can be indirect. Some results given as binding are weak or reduced against the parent protein; the word gives no strength. Tags and fused reporters may be left off the sequences shown.

Sequences of proteins named here, by UniProt entry; tags and fusion partners are left off.
UniProt Q9SXZ2: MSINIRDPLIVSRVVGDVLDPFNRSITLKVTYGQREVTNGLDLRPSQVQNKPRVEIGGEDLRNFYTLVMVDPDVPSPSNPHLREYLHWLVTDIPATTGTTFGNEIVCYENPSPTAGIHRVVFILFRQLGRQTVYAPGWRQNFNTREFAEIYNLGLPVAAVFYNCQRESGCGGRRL
UniProt P93003: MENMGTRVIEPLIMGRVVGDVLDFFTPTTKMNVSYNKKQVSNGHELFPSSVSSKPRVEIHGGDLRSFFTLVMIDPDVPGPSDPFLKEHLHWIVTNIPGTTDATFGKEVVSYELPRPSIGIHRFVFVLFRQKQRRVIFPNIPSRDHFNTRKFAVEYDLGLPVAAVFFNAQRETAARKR

Key:
[1] = target: FLOWERING LOCUS T (FT), DNA-binding-domain fusion in pDEST32 (Arabidopsis thaliana), Q9SXZ2; assay: two-hybrid; bZIPs in pDEST22 (activation domain), FT and TFL1 in pDEST32 (DNA-binding domain); yeast PJ69-4A; growth on SD -L-W-H plates, 30°C, six days; details: remark: other sources report otherwise
[2] = target: TERMINAL FLOWER 1 (TFL1), DNA-binding-domain fusion in pDEST32 (Arabidopsis thaliana), P93003; assay: as above; details: remark: other sources report otherwise
[3] = target: TERMINAL FLOWER 1 (TFL1), DNA-binding-domain fusion in pDEST32 (Arabidopsis thaliana) (UniProt P93003); assay: as above
[4] = target: FLOWERING LOCUS T (FT), DNA-binding-domain fusion in pGBKT7-GW (Arabidopsis thaliana) (UniProt Q9SXZ2); assay: two-hybrid; bZIPs in pGADT7-GW (AD), FT in pGBKT7-GW (BD); performed as in ref. 58 (S2 Fig)
[5] = target: FT with C-terminal GFP (Arabidopsis thaliana), Q9SXZ2; assay: co-IP; co-agroinfiltration of N. benthamiana leaves in pairs; GFP-tagged FT or TFL1 precipitated with anti-GFP nanobody beads (GFP-trapA); 5xMyC-tagged proteins detected with anti-MyC; details: remark: other sources report otherwise
[6] = target: TFL1 with C-terminal GFP (Arabidopsis thaliana), P93003; assay: as above; details: remark: other sources report otherwise
[7] = target: FT with C-terminal GFP (Arabidopsis thaliana) (UniProt Q9SXZ2); assay: as above
[8] = target: TFL1 with C-terminal GFP (Arabidopsis thaliana) (UniProt P93003); assay: as above
[9] = target: FT:cYFP (Arabidopsis thaliana) (UniProt Q9SXZ2); assay: split reporter; BiFC in N. benthamiana leaves; nYFP fusions with FT:cYFP and nuclear marker H2B:mCHERRY; YFP/mCHERRY ratio of n>150 nuclei, two replicates
[10] = target: FLOWERING LOCUS T (FT), DNA-binding-domain fusion in pDEST32 (Arabidopsis thaliana) (UniProt Q9SXZ2); assay: two-hybrid; bZIPs in pDEST22 (activation domain), FT and TFL1 in pDEST32 (DNA-binding domain); yeast PJ69-4A; growth on SD -L-W-H plates, 30°C, six days

B1: bZIP transcription factor FD, activation-domain fusion in pDEST22, Q84JK2 1-285 (protein)
chain: MLSSAKHQRNHRLSATNKNQTLTKVSSISSSSPSSSSSSSSTSSSSPLPSQDSQAQKRSLVTMEEVWNDINLASIHHLNRHSPHPQHNHEPRFRGQNHHNQNPNSIFQDFLKGSLNQEPAPTSQTTGSAPNGDSTTVTVLYSSPFPPPATVLSLNSGAGFEFLDNQDPLVTSNSNLHTHHHLSNAHAFNTSFEALVPSSSFGKKRGQDSNEGSGNRRHKRMIKNRESAARSRARKQAYTNELELEVAHLQAENARLKRQQDQLKMAAAIQQPKKNTLQRSSTAPF
binding [1]: binds
binding [2]: binds

B2: AREB3^S294A, activation-domain fusion in pDEST22 (protein, UniProt Q9LES3 1-297)
chain: MDSQRGIVEQAKSQSLNRQSSLYSLTLDEVQNHLGSSGKALGSMNLDELLKSVCSVEANQPSSMAVNGGAAAQEGLSRQGSLTLPRDLSKKTVDEVWKDIQQNKNGGSAHERRDKQPTLGEMTLEDLLLKAGVVTETIPGSNHDGPVGGGSAGSGAGLGQNITQVGPWIQYHQLPSMPQPQAFMPYPVSDMQAMVSQSSLMGGLSDTQTPGRKRVASGEVVEKTVERRQKRMIKNRESAARSRARKQAYTHELEIKVSRLEEENERLRKQKEVEKILPSVPPPDPKRQLRRTSAAPF
binding [3]: binds

B3: AREB3, activation-domain fusion in pGADT7-GW (protein, UniProt Q9LES3 1-297)
chain: MDSQRGIVEQAKSQSLNRQSSLYSLTLDEVQNHLGSSGKALGSMNLDELLKSVCSVEANQPSSMAVNGGAAAQEGLSRQGSLTLPRDLSKKTVDEVWKDIQQNKNGGSAHERRDKQPTLGEMTLEDLLLKAGVVTETIPGSNHDGPVGGGSAGSGAGLGQNITQVGPWIQYHQLPSMPQPQAFMPYPVSDMQAMVSQSSLMGGLSDTQTPGRKRVASGEVVEKTVERRQKRMIKNRESAARSRARKQAYTHELEIKVSRLEEENERLRKQKEVEKILPSVPPPDPKRQLRRTSSAPF
binding [4]: binds

B4: AREB3^ΔSAP, truncated version of AREB3 (R291*) lacking the SAP motif, two-hybrid fusion (domain or fragment, UniProt Q9LES3 1-290)
chain: MDSQRGIVEQAKSQSLNRQSSLYSLTLDEVQNHLGSSGKALGSMNLDELLKSVCSVEANQPSSMAVNGGAAAQEGLSRQGSLTLPRDLSKKTVDEVWKDIQQNKNGGSAHERRDKQPTLGEMTLEDLLLKAGVVTETIPGSNHDGPVGGGSAGSGAGLGQNITQVGPWIQYHQLPSMPQPQAFMPYPVSDMQAMVSQSSLMGGLSDTQTPGRKRVASGEVVEKTVERRQKRMIKNRESAARSRARKQAYTHELEIKVSRLEEENERLRKQKEVEKILPSVPPPDPKRQLR
binding [4]: binds

B5: FD with N-terminal 5xMyC, Q84JK2 1-285 (protein)
chain: MLSSAKHQRNHRLSATNKNQTLTKVSSISSSSPSSSSSSSSTSSSSPLPSQDSQAQKRSLVTMEEVWNDINLASIHHLNRHSPHPQHNHEPRFRGQNHHNQNPNSIFQDFLKGSLNQEPAPTSQTTGSAPNGDSTTVTVLYSSPFPPPATVLSLNSGAGFEFLDNQDPLVTSNSNLHTHHHLSNAHAFNTSFEALVPSSSFGKKRGQDSNEGSGNRRHKRMIKNRESAARSRARKQAYTNELELEVAHLQAENARLKRQQDQLKMAAAIQQPKKNTLQRSSTAPF
binding [5]: binds
binding [6]: binds

B6: AREB3 with N-terminal 5xMyC (protein, UniProt Q9LES3 1-297)
chain: MDSQRGIVEQAKSQSLNRQSSLYSLTLDEVQNHLGSSGKALGSMNLDELLKSVCSVEANQPSSMAVNGGAAAQEGLSRQGSLTLPRDLSKKTVDEVWKDIQQNKNGGSAHERRDKQPTLGEMTLEDLLLKAGVVTETIPGSNHDGPVGGGSAGSGAGLGQNITQVGPWIQYHQLPSMPQPQAFMPYPVSDMQAMVSQSSLMGGLSDTQTPGRKRVASGEVVEKTVERRQKRMIKNRESAARSRARKQAYTHELEIKVSRLEEENERLRKQKEVEKILPSVPPPDPKRQLRRTSSAPF
binding [7]: binds
binding [8]: binds

B7: AREB3^S294A with N-terminal 5xMyC (protein, UniProt Q9LES3 1-297)
chain: MDSQRGIVEQAKSQSLNRQSSLYSLTLDEVQNHLGSSGKALGSMNLDELLKSVCSVEANQPSSMAVNGGAAAQEGLSRQGSLTLPRDLSKKTVDEVWKDIQQNKNGGSAHERRDKQPTLGEMTLEDLLLKAGVVTETIPGSNHDGPVGGGSAGSGAGLGQNITQVGPWIQYHQLPSMPQPQAFMPYPVSDMQAMVSQSSLMGGLSDTQTPGRKRVASGEVVEKTVERRQKRMIKNRESAARSRARKQAYTHELEIKVSRLEEENERLRKQKEVEKILPSVPPPDPKRQLRRTSAAPF
binding [7]: binds
binding [8]: binds

B8: FD^T282A with N-terminal 5xMyC, Q84JK2 1-285 (protein)
chain: MLSSAKHQRNHRLSATNKNQTLTKVSSISSSSPSSSSSSSSTSSSSPLPSQDSQAQKRSLVTMEEVWNDINLASIHHLNRHSPHPQHNHEPRFRGQNHHNQNPNSIFQDFLKGSLNQEPAPTSQTTGSAPNGDSTTVTVLYSSPFPPPATVLSLNSGAGFEFLDNQDPLVTSNSNLHTHHHLSNAHAFNTSFEALVPSSSFGKKRGQDSNEGSGNRRHKRMIKNRESAARSRARKQAYTNELELEVAHLQAENARLKRQQDQLKMAAAIQQPKKNTLQRSSAAPF
binding [5]: binds

B9: FD^T282A with N-terminal 5xMyC (protein, UniProt Q84JK2 1-285)
chain: MLSSAKHQRNHRLSATNKNQTLTKVSSISSSSPSSSSSSSSTSSSSPLPSQDSQAQKRSLVTMEEVWNDINLASIHHLNRHSPHPQHNHEPRFRGQNHHNQNPNSIFQDFLKGSLNQEPAPTSQTTGSAPNGDSTTVTVLYSSPFPPPATVLSLNSGAGFEFLDNQDPLVTSNSNLHTHHHLSNAHAFNTSFEALVPSSSFGKKRGQDSNEGSGNRRHKRMIKNRESAARSRARKQAYTNELELEVAHLQAENARLKRQQDQLKMAAAIQQPKKNTLQRSSAAPF
binding [8]: binds

B10: nYFP:AREB3 (protein, UniProt Q9LES3 1-297)
chain: MDSQRGIVEQAKSQSLNRQSSLYSLTLDEVQNHLGSSGKALGSMNLDELLKSVCSVEANQPSSMAVNGGAAAQEGLSRQGSLTLPRDLSKKTVDEVWKDIQQNKNGGSAHERRDKQPTLGEMTLEDLLLKAGVVTETIPGSNHDGPVGGGSAGSGAGLGQNITQVGPWIQYHQLPSMPQPQAFMPYPVSDMQAMVSQSSLMGGLSDTQTPGRKRVASGEVVEKTVERRQKRMIKNRESAARSRARKQAYTHELEIKVSRLEEENERLRKQKEVEKILPSVPPPDPKRQLRRTSSAPF
binding [9]: binds

B11: nYFP:AREB3^ΔSAP (domain or fragment, UniProt Q9LES3 1-290)
chain: MDSQRGIVEQAKSQSLNRQSSLYSLTLDEVQNHLGSSGKALGSMNLDELLKSVCSVEANQPSSMAVNGGAAAQEGLSRQGSLTLPRDLSKKTVDEVWKDIQQNKNGGSAHERRDKQPTLGEMTLEDLLLKAGVVTETIPGSNHDGPVGGGSAGSGAGLGQNITQVGPWIQYHQLPSMPQPQAFMPYPVSDMQAMVSQSSLMGGLSDTQTPGRKRVASGEVVEKTVERRQKRMIKNRESAARSRARKQAYTHELEIKVSRLEEENERLRKQKEVEKILPSVPPPDPKRQLR
binding [9]: binds

B12: FD PARALOGUE (FDP), activation-domain fusion in pDEST22 (protein, UniProt Q7PCC6 1-234)
chain: MLSSAKHNKINNHSAFSISSSSSSLSTSSSLGHNKSQVTMEEVWKEINLGSLHYHRQLNIGHEPMLKNQNPNNSIFQDFLNMPLNQPPPPPPPPSSSTIVTALYGSLPLPPPATVLSLNSGVGFEFLDTTENLLASNPRSFEESAKFGCLGKKRGQDSDDTRGDRRYKRMIKNRESAARSRARKQAYTNELELEIAHLQTENARLKIQQEQLKIAEATQNQVKKTLQRSSTAPF
binding [10]: binds
binding [3]: binds

B13: bZIP transcription factor AREB3, activation-domain fusion in pDEST22 (protein, UniProt Q9LES3 1-297)
chain: MDSQRGIVEQAKSQSLNRQSSLYSLTLDEVQNHLGSSGKALGSMNLDELLKSVCSVEANQPSSMAVNGGAAAQEGLSRQGSLTLPRDLSKKTVDEVWKDIQQNKNGGSAHERRDKQPTLGEMTLEDLLLKAGVVTETIPGSNHDGPVGGGSAGSGAGLGQNITQVGPWIQYHQLPSMPQPQAFMPYPVSDMQAMVSQSSLMGGLSDTQTPGRKRVASGEVVEKTVERRQKRMIKNRESAARSRARKQAYTHELEIKVSRLEEENERLRKQKEVEKILPSVPPPDPKRQLRRTSSAPF
binding [10]: binds
binding [3]: binds
